In the experiment the target is T1, Ran binding protein 3 (RanBP3) (human (endogenous in K562)) (UniProt Q9H6Z4).
T1 sequence: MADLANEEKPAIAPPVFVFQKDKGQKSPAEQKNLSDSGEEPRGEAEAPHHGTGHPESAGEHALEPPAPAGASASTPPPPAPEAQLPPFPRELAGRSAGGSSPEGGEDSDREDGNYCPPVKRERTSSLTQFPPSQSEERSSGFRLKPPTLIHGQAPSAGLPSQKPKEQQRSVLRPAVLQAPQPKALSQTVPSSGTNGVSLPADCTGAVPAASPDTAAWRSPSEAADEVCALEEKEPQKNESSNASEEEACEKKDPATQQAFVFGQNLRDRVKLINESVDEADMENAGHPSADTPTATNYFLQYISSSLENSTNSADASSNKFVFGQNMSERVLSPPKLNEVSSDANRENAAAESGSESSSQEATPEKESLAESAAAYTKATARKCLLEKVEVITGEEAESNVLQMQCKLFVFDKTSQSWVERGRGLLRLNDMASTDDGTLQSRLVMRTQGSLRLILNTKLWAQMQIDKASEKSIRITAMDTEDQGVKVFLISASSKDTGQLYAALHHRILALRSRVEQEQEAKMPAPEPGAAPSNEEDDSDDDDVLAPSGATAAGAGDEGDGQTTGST
The experiment can be described thus: co-IP; anti-RanBP3 antibody (or isotype-matched control IgG) on protein A/G magnetic beads, incubated 2 h at 4°C with total protein of K562-shNT and K562-shRanBP3 cells in IP lysis buffer with PMSF; washed 4 times; western blot with anti-ERK1/2, anti-CRM1 and anti-SMAD2/3. Background: In western blotting, separated proteins are transferred to a membrane and probed.

By UniProt entry, the sequences of proteins in these tests, tags left out.
UniProt P27361: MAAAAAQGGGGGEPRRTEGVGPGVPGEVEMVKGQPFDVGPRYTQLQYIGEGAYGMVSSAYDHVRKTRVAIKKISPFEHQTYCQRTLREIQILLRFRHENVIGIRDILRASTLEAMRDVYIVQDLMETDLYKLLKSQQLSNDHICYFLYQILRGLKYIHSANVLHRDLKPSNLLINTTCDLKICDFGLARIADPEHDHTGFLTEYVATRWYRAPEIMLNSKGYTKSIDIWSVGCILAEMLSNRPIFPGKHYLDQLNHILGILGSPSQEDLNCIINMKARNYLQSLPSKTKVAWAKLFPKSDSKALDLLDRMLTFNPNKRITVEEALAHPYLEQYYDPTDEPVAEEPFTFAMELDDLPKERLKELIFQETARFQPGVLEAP
UniProt P28482: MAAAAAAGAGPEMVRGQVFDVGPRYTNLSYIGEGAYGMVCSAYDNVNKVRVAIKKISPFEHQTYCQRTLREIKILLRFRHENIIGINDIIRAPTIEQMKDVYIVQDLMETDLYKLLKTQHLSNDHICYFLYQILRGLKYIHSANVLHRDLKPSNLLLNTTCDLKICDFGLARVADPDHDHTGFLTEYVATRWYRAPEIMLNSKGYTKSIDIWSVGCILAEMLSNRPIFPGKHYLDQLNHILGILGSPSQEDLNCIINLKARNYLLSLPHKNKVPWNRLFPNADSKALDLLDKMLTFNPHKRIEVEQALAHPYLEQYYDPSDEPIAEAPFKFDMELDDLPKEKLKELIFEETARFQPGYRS

This note sets out measurements from publication PMC8421687.

Results are given in words; binding and its absence hold for the method and conditions named. In cells and extracts the contact can be indirect. Some entries that bind do so weakly or less than the wild type.

As for “extracellular signal-regulated kinase 1 (ERK1) (from UniProt P27361 1-379)”, the binding result is on record as “binds”. The result for “extracellular signal-regulated kinase 2 (ERK2) (from UniProt P28482 1-360)” reads “binds”.
